From patent publication US20200148733A1
No constants are given. Whether binding was seen depends on the method and setting. A result given as binding can be weak or reduced; the word gives no strength.

How the values were obtained:
[1] = molecular target: cynomolgus monkey IL-23 (cynomolgus monkey); assay: solution competition ELISA (FIG. 5B)
[2] = molecular target: cynomolgus monkey IL-23 (cynomolgus monkey); assay: solution competition ELISA (FIG. 5A)

Row | binding [1] | binding [2] | Binder
1 | binds |  | lipocalin mutein SEQ ID NO: 9 (designed binder) QDSTSDLIPAPPLSKVPLQQNFQDNQFHGKWYVVGMAGNLMLREDKDPTKMSATIYELKEDKSYNVTWVDFRFKKCKYQIGTFVPGSQPGEFTLGGIKSMPGMTSFLVRVVSTNYNQHAMVFFKYVYQNREYFEITLYGRTKELTSELKENFIRFSKSLGLPENHIVFPVPIDQCIDG
2 |  | binds | lipocalin mutein SEQ ID NO: 10 (designed binder) QDSTSDLIPAPPLSKVPLQQNFQDNQFHGKWYVVGLAGNTILREDKDPDKMEATIYELKEDKSYNVTSVDFIMKKCWYFITTFVPGSQPGEFTLGHIKSMPGMTSFLVRVVSTNYNQHAMVFFKYVYQNREFFEITLYGRTKELTSELKENFIRFSKSLGLPENHIVFPVPIDQCIDG
